Percent effect of library compounds

Chains of the proteins cited; added tags and fusions are not shown. Residues count along the entry.
UniProt I6X8D2, whole entry: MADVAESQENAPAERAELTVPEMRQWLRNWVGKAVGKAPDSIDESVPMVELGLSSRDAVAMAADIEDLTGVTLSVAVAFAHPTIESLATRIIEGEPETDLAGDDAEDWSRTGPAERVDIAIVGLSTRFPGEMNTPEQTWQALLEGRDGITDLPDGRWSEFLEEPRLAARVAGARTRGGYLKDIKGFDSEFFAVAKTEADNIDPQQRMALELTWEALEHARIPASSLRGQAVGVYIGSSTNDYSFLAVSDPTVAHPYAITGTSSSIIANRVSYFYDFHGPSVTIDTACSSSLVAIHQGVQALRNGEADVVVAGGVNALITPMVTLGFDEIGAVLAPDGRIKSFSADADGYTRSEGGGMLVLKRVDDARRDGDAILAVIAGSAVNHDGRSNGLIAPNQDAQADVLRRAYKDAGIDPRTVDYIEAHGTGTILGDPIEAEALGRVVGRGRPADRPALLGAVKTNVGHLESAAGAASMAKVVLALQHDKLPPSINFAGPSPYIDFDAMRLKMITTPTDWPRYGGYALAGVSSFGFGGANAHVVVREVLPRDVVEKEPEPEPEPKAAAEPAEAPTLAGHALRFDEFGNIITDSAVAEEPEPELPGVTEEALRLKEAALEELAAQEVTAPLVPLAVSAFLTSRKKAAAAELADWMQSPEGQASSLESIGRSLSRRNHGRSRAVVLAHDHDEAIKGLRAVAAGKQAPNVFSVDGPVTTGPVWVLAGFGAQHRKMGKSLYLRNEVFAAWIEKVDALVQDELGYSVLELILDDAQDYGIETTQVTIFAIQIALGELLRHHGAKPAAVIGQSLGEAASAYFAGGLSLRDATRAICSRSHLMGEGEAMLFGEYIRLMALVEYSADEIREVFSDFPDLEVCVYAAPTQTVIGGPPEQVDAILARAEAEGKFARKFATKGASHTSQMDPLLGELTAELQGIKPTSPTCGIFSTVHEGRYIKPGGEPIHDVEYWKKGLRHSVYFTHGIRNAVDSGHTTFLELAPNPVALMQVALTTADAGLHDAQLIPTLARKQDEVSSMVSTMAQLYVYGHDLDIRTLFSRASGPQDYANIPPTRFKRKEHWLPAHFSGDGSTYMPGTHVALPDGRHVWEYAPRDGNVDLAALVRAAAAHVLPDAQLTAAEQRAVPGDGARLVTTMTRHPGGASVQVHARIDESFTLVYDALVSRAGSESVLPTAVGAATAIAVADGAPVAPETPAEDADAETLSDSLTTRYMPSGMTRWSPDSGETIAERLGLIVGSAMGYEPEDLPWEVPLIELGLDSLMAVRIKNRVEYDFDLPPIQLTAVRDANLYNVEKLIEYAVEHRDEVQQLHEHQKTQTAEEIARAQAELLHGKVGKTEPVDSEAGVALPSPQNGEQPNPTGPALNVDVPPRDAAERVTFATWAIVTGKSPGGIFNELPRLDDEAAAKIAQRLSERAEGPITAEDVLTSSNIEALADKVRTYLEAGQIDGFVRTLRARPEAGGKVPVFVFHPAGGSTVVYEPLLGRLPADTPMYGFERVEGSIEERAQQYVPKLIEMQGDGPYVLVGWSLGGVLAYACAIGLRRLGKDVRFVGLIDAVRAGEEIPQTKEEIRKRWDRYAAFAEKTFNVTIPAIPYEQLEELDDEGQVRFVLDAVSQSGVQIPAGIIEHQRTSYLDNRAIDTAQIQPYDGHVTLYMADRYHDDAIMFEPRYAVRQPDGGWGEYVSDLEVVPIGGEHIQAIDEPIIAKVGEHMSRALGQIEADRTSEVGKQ
UniProt P9WNZ1, whole entry: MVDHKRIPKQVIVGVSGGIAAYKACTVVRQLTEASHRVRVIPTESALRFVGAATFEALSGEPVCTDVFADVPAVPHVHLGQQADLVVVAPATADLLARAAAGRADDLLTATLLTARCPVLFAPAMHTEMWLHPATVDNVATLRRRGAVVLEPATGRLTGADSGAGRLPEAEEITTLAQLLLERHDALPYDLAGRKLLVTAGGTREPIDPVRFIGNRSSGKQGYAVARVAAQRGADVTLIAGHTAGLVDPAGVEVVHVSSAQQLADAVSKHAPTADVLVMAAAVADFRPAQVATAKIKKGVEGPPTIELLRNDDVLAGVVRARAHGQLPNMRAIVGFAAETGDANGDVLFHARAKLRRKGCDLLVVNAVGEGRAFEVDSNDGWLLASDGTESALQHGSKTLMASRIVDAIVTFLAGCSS
UniProt Q8IDJ8, 1-583: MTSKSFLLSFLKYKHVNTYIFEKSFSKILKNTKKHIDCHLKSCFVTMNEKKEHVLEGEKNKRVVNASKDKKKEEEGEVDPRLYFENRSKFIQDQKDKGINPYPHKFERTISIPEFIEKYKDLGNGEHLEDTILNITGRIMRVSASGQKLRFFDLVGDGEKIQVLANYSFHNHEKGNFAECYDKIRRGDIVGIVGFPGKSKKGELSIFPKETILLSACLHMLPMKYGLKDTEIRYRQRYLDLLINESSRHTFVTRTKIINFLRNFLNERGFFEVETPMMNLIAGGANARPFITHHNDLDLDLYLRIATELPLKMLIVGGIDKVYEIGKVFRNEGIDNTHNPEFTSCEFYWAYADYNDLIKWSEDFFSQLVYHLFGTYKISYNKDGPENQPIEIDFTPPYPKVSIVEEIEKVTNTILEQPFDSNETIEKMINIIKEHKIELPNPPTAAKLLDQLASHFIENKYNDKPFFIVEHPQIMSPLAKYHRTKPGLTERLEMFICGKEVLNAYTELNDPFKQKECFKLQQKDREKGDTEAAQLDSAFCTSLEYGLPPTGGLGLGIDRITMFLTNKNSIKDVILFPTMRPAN
UniProt Q4DA54, 1-478: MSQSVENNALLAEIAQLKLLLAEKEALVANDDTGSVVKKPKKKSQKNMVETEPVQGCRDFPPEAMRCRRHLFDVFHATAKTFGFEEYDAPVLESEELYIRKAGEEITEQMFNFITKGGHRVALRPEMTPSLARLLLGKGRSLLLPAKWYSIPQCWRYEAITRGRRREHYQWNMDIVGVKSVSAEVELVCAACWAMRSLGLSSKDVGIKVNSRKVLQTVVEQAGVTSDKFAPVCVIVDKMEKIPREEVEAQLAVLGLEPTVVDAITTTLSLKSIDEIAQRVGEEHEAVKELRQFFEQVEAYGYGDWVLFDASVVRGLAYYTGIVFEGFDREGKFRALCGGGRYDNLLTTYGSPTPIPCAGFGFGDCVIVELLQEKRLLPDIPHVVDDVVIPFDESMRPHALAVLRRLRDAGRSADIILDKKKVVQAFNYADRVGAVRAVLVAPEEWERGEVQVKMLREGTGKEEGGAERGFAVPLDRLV

Results are given as percent effect. How 0% and 100% were set is not recorded. Most values in the screen are low, and negative values occur. Compounds were drawn at random from those tested, without regard to their results. A dash means the value is not listed here; it may have been measured.

Pks13 thioesterase: 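Enzyme assay of the thioesterase domain of polyketide synthase 13; the read-out is not stated. Target: Polyketide synthase Pks13, Mycobacterium tuberculosis (UniProt I6X8D2). Compounds at 30 µM. Higher reads as stronger inhibition (inferred from which compounds were picked for retests). Size under these conditions: about 67,000 compounds, about 300 of them at 50% or above in at least one test.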
CoaBC: 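Coenzyme A biosynthesis protein CoaBC, Mycobacterium tuberculosis (UniProt P9WNZ1). Enzyme assay of CoaBC with a phosphate dye (Biomol Green) read at 650 nm. Tested at 30 µM. Higher reads as stronger inhibition, judged from the few compounds that gave an IC50. Most strong results did not repeat in a second test. Of about 67,000 compounds tested this way, about 40 (0.06%) reached 50% or more in at least one test.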
PfKRS1: 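Enzyme assay of the cytosolic lysyl-tRNA synthetase in 384-well plates, read by luminescence. Target: Lysine-tRNA ligase, Plasmodium falciparum 3D7 (UniProt Q8IDJ8). Concentration: 30 µM. Direction is inferred from only a few compounds that gave an IC50; most scored high, so higher reads as stronger inhibition. About 69,000 compounds were tested under these conditions; 0.071% (about 49) showed 50% or more at least once.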
TcHisRS: 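Enzyme assay of histidyl-tRNA synthetase; the read-out is not stated. Target: Histidine-tRNA ligase, Trypanosoma cruzi CL Brener (UniProt Q4DA54). Concentration: 30 µM. Higher reads as stronger inhibition (inferred: compounds with an IC50 in retests scored well above the rest). Size under these conditions: about 69,000 compounds, about 31 of them at 50% or above in at least one test.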

structure	Pks13 thioesterase	CoaBC	PfKRS1	TcHisRS
c1ccc(NCCn2cc(C3CCCNC3)nn2)cc1 (stereo not drawn)	-9.075	4.412	-0.4017	0
Cc1nc(C(=O)N(C)[C@@H]2CCC[C@@H](Oc3ccccc3)[C@@H]2O)co1	-7.277	1.46	0.02304	4.478
CNC(=O)Cn1nnc(-c2cc3ccccc3o2)n1	0.7009	1.984	3.584	10.34
Cc1cccc(NC(=O)[C@@H]2CCCN2Cc2nc3ccccc3o2)n1	-1.23	9.917	10.41	8.333
CCc1ccc(CNc2cc(N3CCCC3CO)ncn2)s1 (stereo not drawn)	-4.675	1.877	2.171	5.983
Cn1c(NCc2ccc(C(N)=O)cc2)nc2cc(Cl)ccc21	-14.74	-21.61	3.418	12.95
Cc1nn(CCC#N)c(C)c1CCC(=O)N(C(C)C)C1CC1	-30.36	8.571	1.034	5.155
CC(C)c1cc(NC(=O)c2ccncc2)[nH]n1	-10.28	-0.9032	3.819	4.598
O=C(NC1CCc2nccn2C1)c1ccc(OCC2CC2)nc1 (stereo not drawn)	-	9.127	4.087	6.897
CS(=O)(=O)NC(=O)c1ccn(-c2cccc(Br)c2)n1	-22.08	2.893	7.911	7.143
O=C(O)c1nnn(Cc2ccc(F)cc2)c1-c1cccnc1	-29.84	7.495	3.464	2.273
O=S(=O)(NC1CCC2(CC1)OCCO2)c1cccc(Br)c1	-20.57	3.212	-0.9025	3.665
CN(C)C(=O)N1C[C@H]2CC[C@@H]1CN(C1Cc3ccccc3C1)C2	-28.38	5.579	6.73	5.814
CCc1nc2n(n1)CC(NCCc1cccs1)CC2 (stereo not drawn)	5.25	0	3.922	7.389
Cc1nn(C)c(N(C)C)c1CNCc1ccccc1CN(C)C	-11.53	-4.178	-5.347	0.3759
CNC(=O)CNC1CC2(CCN(c3ncccn3)CC2)c2ccccc21 (stereo not drawn)	61.92	1.903	5.824	5.376
Cc1cc(C(O)CCNC(=O)c2ccc(Cl)s2)c(C)o1 (stereo not drawn)	-6.625	4.198	1.013	5.288
O=C(CN1CCOC(Cn2cccn2)C1)NCc1cccs1 (stereo not drawn)	-3.989	9.106	-1.445	-0.3831
CC(=O)c1cccc(OCCCC(=O)N(C)C2CCN(C)CC2)c1	-29.44	-23.97	3.457	7.143
Cc1ccc(CNC(=O)NCC(=O)N2CCCC2)c(N2CCCC2)c1	-22.8	1.276	-1.63	4.902
CC(C)(CNC(=O)CCOc1cccc(F)c1)C(N)=O	-7.214	-0.5319	3.068	1.141
COc1ccccc1C(C)(C)NCc1ccc(C)o1	-25.88	7.692	3.411	2.062
CN(C)C(CNC(=O)c1nc(N2CCCC2)ncc1Cl)c1ccco1 (stereo not drawn)	-32.75	-	0.6212	5.263
CCC(C)c1noc(C2CCN(C(=O)c3cccnc3)CC2)n1 (stereo not drawn)	-13.13	-3.636	5.297	8.368
FC(F)(F)Cn1cc(NCc2cscn2)cn1	-5.706	-0.3891	1.176	10
O=C(c1cccc(Cn2ccnc2)c1)N1CCCC(n2cccn2)C1 (stereo not drawn)	-50.85	-1.053	1.399	4.399
CS(=O)(=O)NCC1CCCN(C(=O)Nc2ccccc2Cl)C1 (stereo not drawn)	-27.7	3.914	5.073	1.087
O=C(CCC1CCCC1)N1CCC(O)(C(F)(F)F)C1 (stereo not drawn)	-40.91	-	1.6	7.006
CCc1noc(CNc2cc3c(cc2Cl)OCCO3)n1	3.972	2.071	-0.9585	7.738
CS(=O)(=O)CCC(=O)Nc1nccn1Cc1ccccc1Cl	-3.176	17.48	3.098	0.5525
Cc1ncc(C(=O)N2CC[C@@]3(O)CCN(C4CCCCC4)C[C@H]3C2)cn1	-23.54	7.009	6.395	5.435
Cc1cc2c(N3CCCC(OCc4cccnc4)C3)ncnc2s1 (stereo not drawn)	-22.22	11.45	-0.3945	0
Cc1ncsc1C(=O)N(Cc1ccccc1)C1CC1	-14.81	3.158	1.452	5.572
Cc1nc2ccccn2c1CN1C[C@@H](CN2CCOCC2)[C@@H](CO)C1	-4.513	6.651	2.823	8.442
Cc1cnc(NS(=O)(=O)c2ccccc2)s1	-27.02	-1.042	5.815	7.772
COCCN1CCC(CNC(=O)C2(c3ccccc3)CCOCC2)C1 (stereo not drawn)	-17.42	2.937	-0.6145	7.514
COc1nsc2nc(C3CCCN3C(C)=O)ccc12 (stereo not drawn)	-3.497	-7.022	2.717	3.955
Cc1ccn2c(F)c(C(=O)N3CCC4(CCC(=O)N(C)C4)CC3)nc2c1	-8.561	7.536	6.754	0.4292
Cc1cnn(CC2CCCCN2C(=O)c2cc(Cl)c[nH]2)c1 (stereo not drawn)	-9.8	2.372	-1.223	2.662
CN1CCN(c2ccc(F)cc2NC(=O)NCCn2ccnc2)CC1	-49.47	4.403	5.909	5.357
c1ccc(CN2C[C@@H]3COC[C@]3(COCc3ccncc3)C2)nc1	-14.49	3.448	5.195	9.244
Cc1nn(C)c(N(C)C)c1CNCc1cccc(Br)c1	-0.3828	-0.8584	10	5.814
Fc1cnc(N2CC3(CCN(CC4CC4)C3)C2)nc1	-23.66	-31.35	1.543	6.897

For reference, 4 entries once more:

{"structure": "CCc1noc(CNc2cc3c(cc2Cl)OCCO3)n1", "Pks13 thioesterase": 3.972, "CoaBC": 2.071, "PfKRS1": -0.9585, "TcHisRS": 7.738}
{"structure": "c1ccc(CN2C[C@@H]3COC[C@]3(COCc3ccncc3)C2)nc1", "Pks13 thioesterase": -14.49, "CoaBC": 3.448, "PfKRS1": 5.195, "TcHisRS": 9.244}
{"structure": "CC(C)(CNC(=O)CCOc1cccc(F)c1)C(N)=O", "Pks13 thioesterase": -7.214, "CoaBC": -0.5319, "PfKRS1": 3.068, "TcHisRS": 1.141}
{"structure": "COc1nsc2nc(C3CCCN3C(C)=O)ccc12", "stereo": "stereo not drawn", "Pks13 thioesterase": -3.497, "CoaBC": -7.022, "PfKRS1": 2.717, "TcHisRS": 3.955}

Measurements from “University of Dundee, Small-Polar-MMV Screening Library” (2021), ChEMBL document CHEMBL3988442.